Values of other authors, collected in patent US7858634B2, “Amorphous 3-pyridil-1-hydroxyethyliden-1,1-biphosphonic acid monosodium salt and process for the preparation thereof” (Chemi SpA, priority 2004, dated 2010).

Conditions: amorphous form; as described in WO03/033508; cited from earlier work

## NCCCC(O)(P(=O)(O)O)P(=O)(O)O [sodium alendronate]
  dissolution rate in water with respect to crystalline forms: more rapidly dissolved in water
